Values from PubChem BioAssay AID1224828 (NIAID, 2016).
The whole screen tested about 17,000 reagents; below is an unselected part. 762 of all reagents (4.5%) were called active. 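Active calls include both raised and lowered p65 entry, mostly lowered; wells with fewer than 50 cells lack a z-score.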 The raw values are shown without normalisation. Unmarked entries are inactive. The numbers tell different reagents against one gene apart.

- Aim: 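Knock-downs that increase or decrease LPS-induced p65 nuclear translocation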 (primary screen)
- Cells: mouse RAW264.7 G9 macrophage reporter cells (GFP-p65, Tnf promoter-mCherry)
- Reagent: siRNA pool against mouse genes, 100 nM
- Timing: 2 days siRNA transfection, then 40 min LPS before fixation
- Conditions: LPS (Salmonella minnesota R595) at 10 ng/ml
- Measurement: 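Microscopy ratio of nuclear to perinuclear-ring GFP-p65 signal, scaled to the plate median; gene score is the average of two replicate robust z-scores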
- Scale: p65 translocation robust z-score: higher = more nuclear NF-kappaB p65 after LPS than the plate median; nuclear/cytoplasmic p65 ratio: higher = more nuclear NF-kappaB p65
- Call rule: 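Called active when z exceeds 3.3 or falls under -1.56 (median of Tlr4 controls), giving activity score of at least 50; no calls for control wells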
- Calls: active = hit (p65 shift raised or lowered); inactive = no clear change

no.	Gene	reagent	p65 translocation robust z-score	nuclear/cytoplasmic p65 ratio, rep 1	nuclear/cytoplasmic p65 ratio, rep 2	low cell count flag
1	Or4p18	1	-2.13 (active)	1.34	1.26	enough cells to score
2	Or13p3	1	2.35	1.88	1.8	enough cells to score
3	Sdhb	1	-0.48	1.28	1.69	enough cells to score
4	Il21r	1	-0.61	1.39	1.31	enough cells to score
5	Ripply3	1	-0.55	1.4	1.28	enough cells to score
6	Gabrp	1	0.01	1.4	1.4	enough cells to score
7	Or52h7	1	2.32	1.42	1.54	enough cells to score
8	Cst8	1	-0.18	1.48	1.83	enough cells to score
9	Islr2	1	1.85	1.67	2.16	enough cells to score
10	Acot8	1		1.25	1.2	fewer than 50 cells per well; well left out of scoring
11	Rapgef4	1	0.65	1.33	1.67	enough cells to score
12	Rapgef4	2		1.51	1.34	fewer than 50 cells per well; well left out of scoring
13	Il25	1	-0.64	1.43	1.37	enough cells to score
14	Syt12	1	0.32	1.55	1.23	enough cells to score
15	Tcea1	1	0.61	1.54	1.67	enough cells to score
16	Ppan	1	-0.91	1.37	1.29	enough cells to score
17	Ltb4r1	1	-0.02	1.44	1.65	enough cells to score
18	Gga1	1		1.37	1.48	fewer than 50 cells per well; well left out of scoring
19	Batf2	1	0.56	1.43	1.54	enough cells to score
20	Ssh3	1	-1.59 (active)	1.31	1.34	enough cells to score
21	Slc39a11	1	0.35	1.42	1.32	enough cells to score
22	Jmjd6	1	-0.51	1.41	1.35	enough cells to score
23	Adap1	1	0.27	1.62	1.85	enough cells to score
24	Ddx24	1	1.74	1.66	1.96	enough cells to score
25	Inca1	1	-0.66	1.55	1.54	enough cells to score
26	Tnfsf15	1	0.22	1.58	1.52	enough cells to score
27	Svep1	1	-0.63	1.27	1.17	enough cells to score
28	Exph5	1	1.12	1.61	1.34	enough cells to score
29	Tcaf3	1		1.15	1.57	fewer than 50 cells per well; well left out of scoring
30	E2f5	1	0.61	1.61	1.41	enough cells to score
31	Selplg	1	0.34	1.53	1.67	enough cells to score
32	Gm11961	1	0.3	1.38	1.61	enough cells to score
33	Ap2s1	1	-0.29	1.52	1.68	enough cells to score
34	Vwa3a	1		1.55	1.69	fewer than 50 cells per well; well left out of scoring
35	Fads6	1	1.98	1.68	1.82	enough cells to score
36	Nt5c3b	1	1.83	1.68	1.78	enough cells to score
37	Garin1b	1	0.21	1.47	1.77	enough cells to score
38	Fcmr	1	-0.68	1.53	1.49	enough cells to score
39	Acp2	1	0	1.64	1.6	enough cells to score
40	Timm23	1	0.71	1.48	1.25	enough cells to score
